Values from PubChem BioAssay AID652243 (Drosophila RNAi Screening Center, 2013)

- Assay: 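Knock-downs that decrease or increase androgen receptor reporter signal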 (primary screen)
- System: Drosophila S2R+ cells
- Knock-down reagent: long dsRNA against Drosophila genes
- Time to read-out: 72 h (48 h, then 24 h hormone)
- Treatment: synthetic androgen R1881 at 10 nM for 24 h
- Detection: 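Firefly light from an androgen-responsive reporter and Renilla control light per well, raw and unnormalised, for each of two replicates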
- Direction: firefly reporter light: higher = more light from androgen-responsive reporter; Renilla control light: higher = more constitutive control signal (cell number, transfection)
- Call rule: 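Hit when the log firefly-to-Renilla ratio dropped or increased by a fixed fold versus the mean of GFP or LacZ controls across duplicate plates; lowering cut given as 1.5 and as 3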
- Calls: active = hit: reporter lowered or raised; inactive = no hit
The screen tested about 24,000 reagents; below is a random part of those that have a named target and a result. In the full data, 246 (1%) got an active call. 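Plates not normalised; calls are printed but the firefly/Renilla ratio behind them is not deposited; fold cut for lowering reported inconsistently.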 The raw values are shown without normalisation. Names joined by + are all predicted targets of the reagent. Not stated in the record: the amount of reagent.

no.	gene	dsRNA	firefly reporter light, replicate 1	firefly reporter light, replicate 2	Renilla control light, replicate 1	Renilla control light, replicate 2	activity call
1	nxf4	DRSC12548	1.03e5	1.55e5	3.20e6	2.47e6	inactive
2	CG10097 + CG10096	DRSC14189	37023	82905	3.15e5	6.86e5	inactive
3	CG10097 + CG10096	DRSC14190	1.55e5	1.24e5	2.55e6	2.85e6	inactive
4	Gagr	DRSC10441	18324	24144	1.91e5	2.32e5	inactive
5	CG18130	DRSC19790	7.30e5	6.42e5	3.03e6	2.98e6	inactive
6	CG18130	DRSC24767	7.39e5	5.51e5	8.54e5	7.33e5	inactive
7	CG5001	DRSC00673	87733	98445	9.29e5	7.63e5	inactive
8	CG5001	DRSC26191	3.83e5	3.28e5	6.23e5	3.57e5	inactive
9	Pdh	DRSC11249	80871	67526	1.31e6	7.32e5	inactive
10	Pdh	DRSC26995	3.43e5	2.98e5	9.19e5	6.39e5	inactive
11	IP3K1 + hpRNA:CR18854	DRSC23313	5.84e5	5.39e5	1.56e6	1.47e6	inactive
12	CG33523	DRSC09814	1.73e5	1.55e5	2.52e6	2.03e6	inactive
13	CG33523	DRSC22155	8.50e5	9.48e5	2.84e6	1.94e6	inactive
14	CG13920	DRSC08389	1.72e6	1.50e6	2.50e6	2.07e6	inactive
15	CG33460	DRSC05570	3.36e5	1.69e5	4.92e5	4.87e5	inactive
16	CG7137	DRSC07017	8.41e5	7.34e5	1.34e6	1.05e6	inactive
17	psd	DRSC03131	1.20e5	1.42e5	1.64e6	1.25e6	inactive
18	psd	DRSC25415	1.12e6	1.12e6	1.24e6	1.44e6	inactive
19	PGAP1	DRSC18286	90395	83707	6.00e5	4.39e5	inactive
20	PGAP1	DRSC28989	4.52e5	4.83e5	1.57e6	1.13e6	inactive
21	Dim1	DRSC00563	1.17e5	98667	8.43e5	8.33e5	inactive
22	CG5149	DRSC02819	9.97e5	9.60e5	1.35e6	1.47e6	inactive
23	CG5149	DRSC27178	2.97e5	3.00e5	6.54e5	7.07e5	inactive
24	CG15919	DRSC06594	2.34e5	2.91e5	2.98e6	3.58e6	inactive
25	lncRNA:CR34046	DRSC14075	2.39e5	5.06e5	1.77e5	3.44e5	inactive
26	lncRNA:CR34046	DRSC30016	5.68e5	4.09e5	1.36e6	1.43e6	inactive
27	CG5506	DRSC10511	2.28e5	2.21e5	1.62e6	1.58e6	inactive
28	gsb-n	DRSC04021	1.68e5	2.08e5	3.35e5	4.96e5	inactive
29	gsb-n	DRSC04693	3.44e5	3.92e5	2.09e6	2.06e6	inactive
30	Mnn1	DRSC03368	1.98e5	1.70e5	1.40e6	1.61e6	inactive
31	l(3)07882	DRSC15882	84503	82729	4.95e5	5.64e5	inactive
32	Cbs	DRSC20553	46807	40006	3.74e5	3.50e5	inactive
33	CG17683	DRSC21160	1.85e5	1.89e5	6.62e5	6.52e5	inactive
34	CG17683	DRSC27534	2.68e5	3.43e5	4.94e5	8.26e5	inactive
35	ND-24L	DRSC10650	2.44e5	2.42e5	3.00e6	2.54e6	inactive
36	ND-24L	DRSC28201	6.27e5	4.90e5	1.33e6	1.34e6	inactive
37	Prx1	DRSC10741	1.51e5	1.58e5	1.28e6	1.74e6	inactive
38	Prx1	DRSC24401	5.78e5	7.65e5	8.48e5	1.09e6	inactive
39	CG15638	DRSC01875	2.14e5	2.62e5	1.56e6	1.83e6	inactive
40	CG34404	DRSC15335	86510	54397	2.47e6	1.85e6	active
41	CG34404	DRSC15978	87047	57706	4.92e5	4.70e5	inactive
42	CG34404	DRSC25463	5.37e5	4.44e5	9.39e5	6.93e5	inactive
43	snama	DRSC04049	5.59e5	4.70e5	1.60e6	1.66e6	inactive
44	snama	DRSC28914	7.70e5	8.35e5	1.55e6	1.45e6	inactive
45	CG31915	DRSC03000	99310	1.17e5	8.77e5	9.49e5	inactive
46	side-VII	DRSC14578	1.06e5	1.51e5	8.39e5	1.20e6	inactive
47	ihog	DRSC03157	7.31e5	9.96e5	2.07e6	2.40e6	inactive
48	ihog	DRSC29581	3.70e5	6.57e5	4.58e5	4.58e5	inactive
49	Bap111	DRSC18419	5.42e5	4.19e5	2.61e6	1.77e6	inactive
50	Bap111	DRSC28822	9.64e5	8.30e5	9.11e5	8.79e5	inactive
51	NLaz	DRSC21521	7.70e5	6.77e5	2.36e6	2.20e6	inactive
52	CG32264	DRSC08061	18458	23797	1.63e5	1.69e5	active
53	CG32264	DRSC08167	1.89e5	1.93e5	2.00e6	2.17e6	inactive
54	CG32264	DRSC08169	1.05e6	9.13e5	1.33e6	1.00e6	inactive
55	CG32264	DRSC08285	2.28e5	3.79e5	2.64e6	2.87e6	inactive
56	CG32264	DRSC25774	4.97e5	4.25e5	1.14e6	6.35e5	inactive
57	CG4770	DRSC15639	3.71e5	2.90e5	3.65e6	3.05e6	inactive
58	Csgalnact	DRSC06228	3.12e5	2.12e5	1.71e6	1.29e6	inactive
